Source: PubChem BioAssay AID1259254 (NCATS, 2017)
Purpose: 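Gene knock-downs that lead to re-replication, shown by excess G2 DNA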 (primary screen). System: human HCT116 colorectal cancer cells. Reagent: single siRNA against human genes. Timing: 3 days. Measured: 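Nuclei stained with Hoechst and imaged; cell-cycle phase assigned by DNA content; G2 share scaled per plate, non-targeting siRNA 0%, GMNN siRNA 100%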. Scale: G2 robust z-score: higher = more G2 cells, more excess DNA replication. Call rule: 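An siRNA counts as active if its G2 robust z-score lies at least 5 MADs above the screen median; here such calls match roughly 38% of GMNN control or more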.
The whole screen tested about 59,000 reagents; shown is an unselected part. About 1,550 of them (2.6%) were called active. 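G2 share is only a proxy for re-replication; each gene was hit by three separate siRNAs, and active genes were retested.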 Entries without a mark were called inactive. The numbers tell different reagents against one gene apart. Not all columns of the deposit are shown. Not given: the amount of reagent.

With ZUP1 #1, how do the results read?
G2 robust z-score: -0.371

What did the screen give for ZUP1 #2?
G2 robust z-score: -0.734

For ZUP1 #3, how do the results read?
G2 robust z-score: -0.164

For SCN2A #1, what does the deposit list?
G2 robust z-score: -0.212

What is on record for SCN2A #2?
G2 robust z-score: 0.261

For SCN2A #3, what does the deposit list?
G2 robust z-score: -0.346

For PRKD2 #1, how do the results read?
G2 robust z-score: -1.1

What did the screen give for PRKD2 #2?
G2 robust z-score: 2.08

With PRKD2 #3, what was measured?
G2 robust z-score: 2.36

Which result is listed for ENHO #1?
G2 robust z-score: -0.122

For ENHO #2, how do the results read?
G2 robust z-score: 1.57

With ENHO #3, what was measured?
G2 robust z-score: 0.753

How did the screen score SPDL1 #1?
G2 robust z-score: 4.08

With SPDL1 #2, how do the results read?
G2 robust z-score: 0.596

For SPDL1 #3, what does the deposit list?
G2 robust z-score: 0.861

What did the screen give for AMZ1 #1?
G2 robust z-score: 3.31

What is on record for AMZ1 #2?
G2 robust z-score: 2.79

What is on record for AMZ1 #3?
G2 robust z-score: 0.795
